Reference: PubChem BioAssay AID743454 (Peter MacCallum Cancer Centre, 2014)

- Aim: 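Search for knock-downs that restore vorinostat killing in resistant colon cancer cells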 (primary screen)
- Cell system: human HCT116-VR colon cancer cells, selected for vorinostat resistance
- Knock-down reagent: siRNA pool against human genes, 40 nM siRNA pool
- Duration: vorinostat for 24 h, read-out about 72 h after transfection
- Challenge: vorinostat at 2.5 µM final
- Measured: 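Two measures, CellTiter-Fluor viability and luminescent caspase 3/7 activity, each as fold change against same-plate mock wells, mean of duplicates, then screen-wide robust z-score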
- Scale: viability robust z-score: higher = more viable cells than screen typical; caspase robust z-score: higher = more caspase 3/7 activity than screen typical
- Hit rule: 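Hits are knock-downs in viability class RV1/RV2 or caspase class CA1/CA2, excluding ones that killed cells in the no-drug cell-count arm; hits then retested with single siRNAs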
This is a random part of about 18,000 deposited reagents. In the full data, 450 (2.5%) are marked active. 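Single biological run; no consistent viability z cut-off exists, so the class columns, not z-scores, define the calls.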 Reagent sequences are not shown.

For AFG1L, the entry reads viability hit class no change; caspase hit class no change; viability robust z-score -0.62; caspase robust z-score -0.45; inactive.
BGN showed viability hit class no change; caspase hit class no change; viability robust z-score -0.36; caspase robust z-score 1.97; inactive.
With knock-down of HSD3B2, the record shows viability hit class no change; caspase hit class no change; viability robust z-score 2.1; caspase robust z-score -0.04; inactive.
Knock-down of CTDSPL2 gave: viability hit class no change; caspase hit class no change; viability robust z-score -0.33; caspase robust z-score 2.42; inactive.
Knock-down of EGR4 came out at: viability hit class no change; caspase hit class no change; viability robust z-score 0.6; caspase robust z-score 0.56; inactive.
Depletion of PLOD2 came out at: viability hit class no change; caspase hit class no change; viability robust z-score 0.29; caspase robust z-score -0.32; inactive.
Against ANKS3, the entry reads viability hit class no change; caspase hit class no change; viability robust z-score 0.85; caspase robust z-score -0.22; inactive.
BMP8B scored viability hit class no change; caspase hit class no change; viability robust z-score -0.06; caspase robust z-score -0.5; inactive.
TNK1 showed viability hit class no change; caspase hit class no change; viability robust z-score -0.69; caspase robust z-score 2; inactive.
With knock-down of FUCA2, the record shows viability hit class no change; caspase hit class no change; viability robust z-score -1.48; caspase robust z-score 3.81; inactive.
Knock-down of CD300E resulted in: viability hit class no change; caspase hit class no change; viability robust z-score -0.62; caspase robust z-score -1.34; inactive.
With knock-down of TEX10 the results were viability hit class no change; caspase hit class no change; viability robust z-score -0.53; caspase robust z-score -0.89; inactive.
